The values that follow come from paper PMC4515122.

Protein sequences, listed by entry. Tags and fused reporters are not part of them.
UniProt O43715: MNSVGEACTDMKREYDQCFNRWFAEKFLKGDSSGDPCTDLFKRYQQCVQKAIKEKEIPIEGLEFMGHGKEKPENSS

No constants are given. Whether binding was seen depends on the method and setting.

This test concerns the target Full-length TRIAP1 (residues 1-76), His6 vector (human) (UniProt O43715). The test can be described thus: SEC + other: NMR line widths; free TRIAP1 in solution; gel filtration profiles and NMR line widths; both purified. A general note: SEC sorts molecules by how far they enter the pores of the column.

Regarding “Full-length TRIAP1 (residues 1-76), His6 vector (from UniProt O43715 1-76)”, the binding entry is recorded as “no binding”.
